Laboratory results: PubChem BioAssay AID1259254 (NCATS, 2017)
The deposit covers about 59,000 reagents; below is an unselected part. About 1,550 of them (2.6%) count as active. 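G2 share is only a proxy for re-replication; each gene was hit by three separate siRNAs, and active genes were retested.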 The raw values are shown without normalisation. Not given: the amount of reagent.

Aim: 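Gene knock-downs that lead to re-replication, shown by excess G2 DNA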 (primary screen)
System: human HCT116 colorectal cancer cells
Knock-down reagent: single siRNA against human genes
Timing: 3 days
Measurement: 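Nuclei stained with Hoechst and imaged; cell-cycle phase assigned by DNA content; G2 share scaled per plate, non-targeting siRNA 0%, GMNN siRNA 100%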
Reading the numbers: G2 robust z-score and G2 cells, % of GMNN control: higher = more G2 cells, more excess DNA replication; raw share of cells in G2: higher = larger share of cells with G2 DNA content
Active means: 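Active siRNAs have a G2 robust z of 5 or more median absolute deviations over the median, which in these data means about 38% or higher of GMNN control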

gene knocked down	PubChem SID	G2 robust z-score	G2 cells, % of GMNN control	raw share of cells in G2 (%)	outcome
RAB5B	SID160715542	-1.17	-5.29	2.66	inactive
RAB5B	SID160715543	0.252	4.74	5.72	inactive
RAB5B	SID160715544	-0.395	0.189	5.04	inactive
PYCARD	SID160724376	0.441	6.07	5.98	inactive
PYCARD	SID160739089	-1.57	-8.05	1.52	inactive
PYCARD	SID160739090	-1.15	-5.11	3.85	inactive
QSOX1	SID160715351	0.154	4.05	5.49	inactive
QSOX1	SID160715352	0.298	5.06	6.72	inactive
QSOX1	SID160731610	0.313	5.17	6.65	inactive
SPANXN2	SID160733467	-0.589	-1.18	2.72	inactive
SPANXN2	SID160768267	0.167	4.14	5.22	inactive
SPANXN2	SID160768268	2.24	18.7	10.5	inactive
PACS2	SID160735807	3.84	30	16.7	inactive
PACS2	SID160735809	0.13	3.88	5.74	inactive
PACS2	SID160735810	1.55	13.9	8.36	inactive
NT5E	SID160778254	1.57	14	9.36	inactive
NT5E	SID160778255	0.903	9.32	7.11	inactive
NT5E	SID160778256	-1.25	-5.8	1.75	inactive
ZNF333	SID160752274	0.195	4.34	4.32	inactive
ZNF333	SID160752275	-1.12	-4.9	3.69	inactive
ZNF333	SID160752276	-0.399	0.157	3.68	inactive
NTN4	SID160746969	-0.699	-1.95	2.1	inactive
NTN4	SID160746970	2.23	18.6	14.3	inactive
NTN4	SID160746971	-1.04	-4.34	2.27	inactive
NIPA1	SID160756084	-0.0997	2.27	5	inactive
NIPA1	SID160756085	-0.365	0.4	3.45	inactive
NIPA1	SID160756086	-1.01	-4.16	0.603	inactive
KCNJ5-AS1	SID160732689	0.692	7.84	5.69	inactive
KCNJ5-AS1	SID160761358	-0.0595	2.55	4.5	inactive
KCNJ5-AS1	SID160761359	-0.434	-0.0829	3.1	inactive

Sorted by “raw share of cells in G2 (%)” (high to low): 2 of the entries above.
gene knocked down	PubChem SID	G2 robust z-score	G2 cells, % of GMNN control	raw share of cells in G2 (%)	outcome
QSOX1	SID160731610	0.313	5.17	6.65	inactive
SPANXN2	SID160733467	-0.589	-1.18	2.72	inactive
